Test results as given in publication PMC5566378.
Results are given in words; binding and its absence hold for the method and conditions named. Some results given as binding are weak or reduced against the parent protein; the word gives no strength.

Protein sequences, listed by entry. Tags and fused reporters are not part of them. Residues count along the entry.
UniProt Q96F46, residues 33-320: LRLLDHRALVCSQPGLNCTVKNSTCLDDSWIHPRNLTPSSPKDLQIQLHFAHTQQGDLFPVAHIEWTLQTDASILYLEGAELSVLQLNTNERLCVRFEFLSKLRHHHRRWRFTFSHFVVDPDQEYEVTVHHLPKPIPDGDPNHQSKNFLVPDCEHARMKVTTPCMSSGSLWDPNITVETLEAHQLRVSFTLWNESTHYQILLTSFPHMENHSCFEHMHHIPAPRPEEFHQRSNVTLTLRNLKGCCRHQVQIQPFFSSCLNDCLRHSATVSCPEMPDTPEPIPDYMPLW
UniProt Q16552, residues 24-155: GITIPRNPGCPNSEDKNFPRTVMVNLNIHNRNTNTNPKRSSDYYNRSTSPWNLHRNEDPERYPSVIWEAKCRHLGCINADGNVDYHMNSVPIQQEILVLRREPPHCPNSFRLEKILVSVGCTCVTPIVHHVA

Legend:
[1] = biological target: T1, IL-17F chain of the human IL-17A/F heterodimer (human) (UniProt Q96PD4); experiment: crystal structure; free IL-17A/F heterodimer (chains co-expressed, purified as the heterodimer); tetragonal crystals, 0.1 M Bis-Tris-propane pH 7.0, 0.5 M succinic acid, 20 °C; 2.3 Å; both purified
T1 sequence (chain, N-linked glycosylation at Asn83 (seen in the crystal)): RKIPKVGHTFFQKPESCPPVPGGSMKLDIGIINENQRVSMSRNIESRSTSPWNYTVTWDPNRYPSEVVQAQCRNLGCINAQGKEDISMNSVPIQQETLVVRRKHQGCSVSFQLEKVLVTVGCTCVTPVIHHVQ

[2] = biological target: human IL-17RA extracellular domain (human) (UniProt Q96F46); experiment: SPR; Biacore 8K; biotinylated IL-17RA ECD immobilised on a streptavidin chip (about 500 RU); cytokines as analytes in PBS pH 7.4, 3 mM EDTA, 0.05% Tween20; 20 °C, 30 µl/min; 1:1 Langmuir model or steady-state analysis; both purified
[3] = biological target: T2, human IL-17RC extracellular domain (human) (UniProt Q8NAC3); experiment: SPR; Biacore 8K; IL-17RC ECD amine-coupled on a CM4 chip (about 500 RU); cytokines as analytes in PBS pH 7.4, 3 mM EDTA, 0.05% Tween20; 20 °C, 30 µl/min; 1:1 Langmuir model or steady-state analysis; both purified
T2 sequence: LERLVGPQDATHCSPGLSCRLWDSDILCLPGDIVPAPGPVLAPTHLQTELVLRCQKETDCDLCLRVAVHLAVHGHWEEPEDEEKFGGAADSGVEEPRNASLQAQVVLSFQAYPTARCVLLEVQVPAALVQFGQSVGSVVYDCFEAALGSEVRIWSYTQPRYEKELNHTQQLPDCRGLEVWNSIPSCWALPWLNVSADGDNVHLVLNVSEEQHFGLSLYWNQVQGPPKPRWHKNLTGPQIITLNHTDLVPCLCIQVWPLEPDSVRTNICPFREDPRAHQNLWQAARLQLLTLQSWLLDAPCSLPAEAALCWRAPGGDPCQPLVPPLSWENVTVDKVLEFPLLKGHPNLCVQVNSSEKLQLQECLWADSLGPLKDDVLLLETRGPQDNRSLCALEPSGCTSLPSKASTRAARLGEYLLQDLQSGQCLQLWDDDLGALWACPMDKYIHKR

binding [1]	binding [2]	binding [3]	Substance
binds	–	–	IL-17A chain of the human IL-17A/F heterodimer (from UniProt Q16552 24-155)
–	binds	binds	human IL-17A homodimer (from UniProt Q16552 24-155) (ligand)
